Reference: patent US20180010140A1 (WASHINGTON STATE UNIVERSITY, published 2018)

T1: CUL3a, yeast two-hybrid construct (Arabidopsis thaliana, UniProt Q9ZVH4 1-732, limits assumed)
T1 construct: Yeast two-hybrid fusion; also called cullin 3a
T1 sequence (looked up): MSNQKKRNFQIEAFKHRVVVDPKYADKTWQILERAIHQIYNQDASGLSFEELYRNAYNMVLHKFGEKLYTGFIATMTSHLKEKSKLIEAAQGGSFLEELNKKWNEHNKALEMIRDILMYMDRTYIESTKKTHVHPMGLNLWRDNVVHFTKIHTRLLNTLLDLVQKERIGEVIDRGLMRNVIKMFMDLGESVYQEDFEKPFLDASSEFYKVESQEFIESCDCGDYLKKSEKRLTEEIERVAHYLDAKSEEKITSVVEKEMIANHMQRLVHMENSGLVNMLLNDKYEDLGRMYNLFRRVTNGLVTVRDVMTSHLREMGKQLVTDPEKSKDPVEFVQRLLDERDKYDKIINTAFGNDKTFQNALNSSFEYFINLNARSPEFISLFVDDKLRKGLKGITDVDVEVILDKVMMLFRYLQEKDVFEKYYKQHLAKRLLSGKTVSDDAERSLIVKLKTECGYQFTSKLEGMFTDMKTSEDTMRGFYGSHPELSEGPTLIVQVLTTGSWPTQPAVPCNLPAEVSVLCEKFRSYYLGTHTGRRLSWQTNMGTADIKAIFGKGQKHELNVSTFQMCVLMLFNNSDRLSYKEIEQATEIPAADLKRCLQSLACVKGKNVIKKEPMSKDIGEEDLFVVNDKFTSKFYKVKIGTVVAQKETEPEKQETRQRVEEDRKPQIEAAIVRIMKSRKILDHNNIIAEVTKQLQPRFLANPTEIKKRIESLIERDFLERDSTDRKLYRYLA

T2: BPM1 (At5 g19000), yeast two-hybrid construct (Arabidopsis thaliana, UniProt Q8L765 1-407, limits assumed)
T2 construct: also called BTB/POZ-MATH protein 1
T2 sequence (looked up): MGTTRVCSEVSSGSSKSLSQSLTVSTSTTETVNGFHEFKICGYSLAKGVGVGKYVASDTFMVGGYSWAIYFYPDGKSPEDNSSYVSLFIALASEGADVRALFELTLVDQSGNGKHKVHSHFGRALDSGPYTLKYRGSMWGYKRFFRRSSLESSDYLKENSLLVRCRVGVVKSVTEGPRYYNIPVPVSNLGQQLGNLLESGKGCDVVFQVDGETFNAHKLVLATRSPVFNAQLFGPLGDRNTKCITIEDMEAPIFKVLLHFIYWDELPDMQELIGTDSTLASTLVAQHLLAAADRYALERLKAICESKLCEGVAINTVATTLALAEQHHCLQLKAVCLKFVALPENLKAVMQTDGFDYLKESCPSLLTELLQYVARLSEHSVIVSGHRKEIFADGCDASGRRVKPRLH

B1: ERF4 (At3 g15210), yeast two-hybrid construct (other, Arabidopsis thaliana, UniProt O80340 1-222, looked up)
chain: MAKMGLKPDPATTNQTHNNAKEIRYRGVRKRPWGRYAAEIRDPGKKTRVWLGTFDTAEEAARAYDTAARDFRGAKAKTNFPTFLELSDQKVPTGFARSPSQSSTLDCASPPTLVVPSATAGNVPPQLELSLGGGGGGSCYQIPMSRPVYFLDLMGIGNVGRGQPPPVTSAFRSPVVHVATKMACGAQSDSDSSSVVDFEGGMEKRSQLLDLDLNLPPPSEQA
notes: Yeast two-hybrid fusion tested against BPM1 as prey
B2: DREB1a (At4 g25480), yeast two-hybrid construct (other, Arabidopsis thaliana, UniProt Q9M0L0 1-216, looked up)
chain: MNSFSAFSEMFGSDYESSVSSGGDYIPTLASSCPKKPAGRKKFRETRHPIYRGVRRRNSGKWVCEVREPNKKTRIWLGTFQTAEMAARAHDVAALALRGRSACLNFADSAWRLRIPESTCAKDIQKAAAEAALAFQDEMCDATTDHGFDMEETLVEAIYTAEQSENAFYMHDEAMFEMPSLLANMAEGMLLPLPSVQWNHNHEVDGDDDDVSLWSY
notes: as for B1
B3: RAV1 (At1 g13260), yeast two-hybrid construct (other, Arabidopsis thaliana, UniProt Q9ZWM9 1-344, looked up)
chain: MESSSVDESTTSTGSICETPAITPAKKSSVGNLYRMGSGSSVVLDSENGVEAESRKLPSSKYKGVVPQPNGRWGAQIYEKHQRVWLGTFNEEDEAARAYDVAVHRFRRRDAVTNFKDVKMDEDEVDFLNSHSKSEIVDMLRKHTYNEELEQSKRRRNGNGNMTRTLLTSGLSNDGVSTTGFRSAEALFEKAVTPSDVGKLNRLVIPKHHAEKHFPLPSSNVSVKGVLLNFEDVNGKVWRFRYSYWNSSQSYVLTKGWSRFVKEKNLRAGDVVSFSRSNGQDQQLYIGWKSRSGSDLDAGRVLRLFGVNISPESSRNDVVGNKRVNDTEMLSLVCSKKQRIFHAS
notes: as for B1
B4: ERF1 (At3 g23240), yeast two-hybrid construct (other, Arabidopsis thaliana, UniProt Q8LDC8 1-218, looked up)
chain: MDPFLIQSPFSGFSPEYSIGSSPDSFSSSSSNNYSLPFNENDSEEMFLYGLIEQSTQQTYIDSDSQDLPIKSVSSRKSEKSYRGVRRRPWGKFAAEIRDSTRNGIRVWLGTFESAEEAALAYDQAAFSMRGSSAILNFSAERVQESLSEIKYTYEDGCSPVVALKRKHSMRRRMTNKKTKDSDFDHRSVKLDNVVVFEDLGEQYLEELLGSSENSGTW
notes: as for B1

Target: T1, CUL3a, yeast two-hybrid construct
Test: yeast two-hybrid

Question: Does B1 bind?
Answer: no binding

Question: Does B2 bind?
Answer: no binding

Question: Does B3 bind?
Answer: no binding

Question: Does B4 bind?
Answer: no binding

Target: T2, BPM1 (At5 g19000), yeast two-hybrid …
Test: yeast two-hybrid, BPM1 as prey

Question: Does B1 bind?
Answer: binds

Question: Does B2 bind?
Answer: binds

Question: Does B3 bind?
Answer: binds
